Data published in paper PMC9389162.
These are yes or no findings as the source states them, for the method shown. In cells and extracts the contact can be indirect. Some entries that bind do so weakly or less than the wild type.

Protein sequences, listed by entry. Tags and fused reporters are not part of them.
UniProt P30874: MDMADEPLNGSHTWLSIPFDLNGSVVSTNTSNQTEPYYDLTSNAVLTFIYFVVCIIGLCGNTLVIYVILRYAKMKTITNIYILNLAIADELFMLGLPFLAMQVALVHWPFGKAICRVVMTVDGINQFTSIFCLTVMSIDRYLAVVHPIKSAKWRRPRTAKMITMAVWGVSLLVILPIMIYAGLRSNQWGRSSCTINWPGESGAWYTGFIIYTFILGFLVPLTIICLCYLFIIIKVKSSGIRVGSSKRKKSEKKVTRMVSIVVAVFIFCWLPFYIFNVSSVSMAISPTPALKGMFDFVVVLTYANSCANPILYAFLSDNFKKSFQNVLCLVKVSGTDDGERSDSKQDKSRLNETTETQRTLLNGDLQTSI
UniProt P35346: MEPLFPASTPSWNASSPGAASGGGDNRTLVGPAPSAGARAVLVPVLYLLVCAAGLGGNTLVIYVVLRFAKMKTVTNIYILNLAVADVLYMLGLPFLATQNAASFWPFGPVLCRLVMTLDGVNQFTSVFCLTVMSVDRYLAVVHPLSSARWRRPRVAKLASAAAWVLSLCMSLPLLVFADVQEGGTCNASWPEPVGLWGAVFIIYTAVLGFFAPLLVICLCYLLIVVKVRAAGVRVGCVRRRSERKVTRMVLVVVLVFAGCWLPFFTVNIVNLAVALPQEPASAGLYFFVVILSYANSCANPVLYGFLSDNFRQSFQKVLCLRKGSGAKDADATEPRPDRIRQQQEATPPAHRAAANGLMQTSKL
UniProt P30680: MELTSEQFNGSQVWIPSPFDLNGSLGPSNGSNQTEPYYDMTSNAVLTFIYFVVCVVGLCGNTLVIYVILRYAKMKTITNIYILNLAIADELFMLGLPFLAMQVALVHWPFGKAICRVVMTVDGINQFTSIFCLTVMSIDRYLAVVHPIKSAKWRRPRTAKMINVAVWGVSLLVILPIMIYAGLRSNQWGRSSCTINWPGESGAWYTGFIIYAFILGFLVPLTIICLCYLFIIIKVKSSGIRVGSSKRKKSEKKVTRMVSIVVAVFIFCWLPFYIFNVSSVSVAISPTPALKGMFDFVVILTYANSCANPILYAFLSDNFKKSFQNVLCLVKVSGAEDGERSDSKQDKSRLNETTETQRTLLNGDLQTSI

Experiments:
[1] = biological target: human somatostatin receptor type 2 (SST2), HA-tagged and SNAP-tagged copies co-expressed (human) (UniProt P30874); experiment: proximity ligation; in situ PLA (Duolink) on fixed, permeabilised GH3, A7 and M2 cells transiently co-transfected with HA-SST2 and SNAP-SST2; mouse anti-HA and rabbit anti-SNAP; amplification 2 h; basal conditions
[2] = biological target: T1, somatostatin receptor type 5 (SST5), endogenous in rat GH3 cells (rat (endogenous in GH3)) (UniProt P30938); experiment: proximity ligation; in situ PLA (Duolink) on fixed, permeabilised GH3, A7 (FLNA-expressing) and M2 (FLNA-lacking) cells, endogenous receptors; rabbit anti-SST2 and mouse anti-SST5; basal or 100 nM octreotide or pasireotide for 5 min; amplification 18 h; PLA puncta per cell counted
T1 sequence: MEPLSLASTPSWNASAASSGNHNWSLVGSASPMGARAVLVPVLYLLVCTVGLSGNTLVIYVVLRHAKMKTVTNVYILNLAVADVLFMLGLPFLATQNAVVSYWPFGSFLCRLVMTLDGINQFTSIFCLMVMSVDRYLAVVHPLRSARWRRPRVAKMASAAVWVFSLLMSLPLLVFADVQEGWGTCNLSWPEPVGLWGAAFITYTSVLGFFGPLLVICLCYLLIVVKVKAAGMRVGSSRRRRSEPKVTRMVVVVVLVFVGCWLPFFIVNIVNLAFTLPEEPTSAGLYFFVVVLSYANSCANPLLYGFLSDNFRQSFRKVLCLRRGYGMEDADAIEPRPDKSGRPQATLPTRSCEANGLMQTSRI

[3] = biological target: somatostatin receptor type 5 (SST5), endogenous in human melanoma A7 and M2 cells (human (endogenous in A7 and M2)) (UniProt P35346); experiment: as above
[4] = biological target: T1, somatostatin receptor type 5 (SST5), endogenous in rat GH3 cells (rat (endogenous in GH3)); experiment: proximity ligation; in situ PLA (Duolink) on fixed, permeabilised GH3, A7 and M2 cells, endogenous SST5; rabbit and mouse anti-SST5 antibodies; amplification 18 h

Q: Which binding [1] does the source give for “human somatostatin receptor type 2 (SST2), HA-tagged and SNAP-tagged copies co-expressed (from UniProt P30874 1-369)” here?
A: The binding was “binds”.

Q: With “somatostatin receptor type 2 (SST2), endogenous in rat GH3 cells (from UniProt P30680 1-369)” as the molecule, how does the binding [2] read?
A: Its binding is “binds”.

Q: With “somatostatin receptor type 2 (SST2), endogenous in human melanoma A7 and M2 cells (from UniProt P30874 1-369)” as the molecule, how does the binding [3] read?
A: Its binding is “binds”.

B1: somatostatin receptor type 5 (SST5), endogenous in rat GH3 cells (receptor, UniProt P30938 1-363)
chain: MEPLSLASTPSWNASAASSGNHNWSLVGSASPMGARAVLVPVLYLLVCTVGLSGNTLVIYVVLRHAKMKTVTNVYILNLAVADVLFMLGLPFLATQNAVVSYWPFGSFLCRLVMTLDGINQFTSIFCLMVMSVDRYLAVVHPLRSARWRRPRVAKMASAAVWVFSLLMSLPLLVFADVQEGWGTCNLSWPEPVGLWGAAFITYTSVLGFFGPLLVICLCYLLIVVKVKAAGMRVGSSRRRRSEPKVTRMVVVVVLVFVGCWLPFFIVNIVNLAFTLPEEPTSAGLYFFVVVLSYANSCANPLLYGFLSDNFRQSFRKVLCLRRGYGMEDADAIEPRPDKSGRPQATLPTRSCEANGLMQTSRI
Q: B1 was tested. Which binding [4] did it give?
A: Its binding is “binds”.
